Laboratory results from PubChem BioAssay AID493014 (National Center for Advancing Translational Sciences (NCATS), 2011).
Among all 340,000 compounds or so, about 170 (0.05%) were called active. This list was built around the results that the source calls inconclusive (neither active nor inactive); the mix of calls is not that of the screen. The call rests on the fitted dose curve; in most records, active means well fitted inhibition curve with a large enough effect in the signal ratio, with a control signal flat (not every such curve was filed as active); inconclusive means small, poorly fitted or top-dose-only effect, or effect the other way, or a change in a side signal; inactive means flat fitted curve, though single readings scatter; the % refers to the signal ratio. Potencies beside an inconclusive call are fits to weak or partial responses and may not hold up.

Test: qHTS Assay to Find Inhibitors of Chronic Active B-Cell Receptor Signaling;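 on activity change, negative = inhibition: plate controls were basal doxycycline-induced cells for no effect and cells given 10 µM MG132 for full effect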
Settings: ABC-DLBCL IkBa-CBG/CBR reporter, luminescence ratio (green luciferase fused to IkBa over red control in TMD8 lymphoma cells), 4 h; activity change, negative = inhibition: at 46.1 µM (top of the series)
Outline: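 Cell line TMD8 (human ABC DLBCL), stably expressing tet-inducible CBG68-IkBa fusion and CBR; IMDM/0.5% FBS; cpd up to 46 uM; dox induction, 4 h, 37C/5% CO2; dual luminescence; green/red ratio; MG132 control.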
Potency means the concentration at half of the fitted maximal effect.

SMILES	activity change, negative = inhibition	Potency
Cc1ccc(NC(=O)CCSc2ccccc2)c(C)c1	inconclusive: 1.53%	–
COc1ccccc1NC(=O)Nc1cccc(C)n1	inconclusive: 8.02%	–
O=C(CSc1ncnc2sc3c(c12)CCCC3)c1ccccc1	inconclusive: 15.4%	–
O=C(Nc1cccnc1)c1ccc(-c2ccccc2)cc1	–	inconclusive: 25.1 µM [falling, single point]
O/N=C1\CC/C(=N\O)c2nn(-c3ccc(Cl)cc3Cl)nc21	inconclusive: -0.209%	–
CCn1nnc(NC(=O)c2ccccc2Br)n1	–	inconclusive: 20.6 µM [falling, single point]
COc1ccc(NC(=O)C2C(c3ccccc3)C2(Cl)Cl)cc1 (stereo unspecified)	inconclusive: -6.76%	–
COc1cc(OC)cc(-c2cc3nc(C)c(CCC(=O)Nc4nc(C)cs4)c(C)n3n2)c1	–	inconclusive: 20.6 µM [falling, partial curve, poor fit]
CC(=O)c1ccc(S(=O)(=O)N2CCn3cccc3C2c2ccc(C)cc2)cc1 (stereo unspecified)	inactive	–
CN(c1cccc(NC(=O)c2ccc(N(C)S(=O)(=O)c3ccccc3)cc2)c1)S(C)(=O)=O	inconclusive: -16.5%	–
C=CCNC(=O)c1c(Br)cnn1-c1ccc(C)cc1	inconclusive: 0.784%	–
O=C(Nc1c[nH]c(=O)[nH]c1=O)c1cc([N+](=O)[O-])cc([N+](=O)[O-])c1	inactive	–
COc1cc(C(=O)Nc2ccc(Nc3ccccc3)cc2)cc(OC)c1OC	inconclusive: -19.1%	–
CCNc1nc(NC#N)nc(SCC(=O)OCC)n1	inactive	–
CCc1c(C(=O)OCc2ccccc2)[nH]c(C)c1C	inconclusive: 17.2%	–
CC(C)c1ccc(C2=CC(c3ccc(C(C)C)cc3)n3nnnc3N2)cc1 (stereo unspecified)	inconclusive: 4.15%	–
Cc1ccccc1Nc1c(-c2ccccn2)nc2c(C)cccn12	inactive	–
COc1cc(CNC(=O)c2ccc(Cn3nc(C)c(Cl)c3C)o2)cc(OC)c1	inconclusive: -12.1%	–
CCn1c(N2CCN(C(=O)/C=C/c3ccccc3)CC2)nc2ccccc21	inconclusive: -3.75%	–
O=Cc1ccc(-c2ccc(Cl)cc2Cl)[nH]1	inconclusive: 10.4%	–
COc1ccc(-c2oc(=O)c3cc(OC)c(OC)cc3c2/C=C/c2ccc(OC(C)=O)cc2)cc1	inconclusive: -6.27%	–
Cc1cc(NC(=O)CSc2nccn2-c2cccc(C)c2C)no1	inconclusive: -18.9%	–

Another view of part of the listing above.
COc1ccccc1NC(=O)Nc1cccc(C)n1
  activity change, negative = inhibition: inconclusive: 8.02%
CCn1nnc(NC(=O)c2ccccc2Br)n1
  Potency: inconclusive: 20.6 µM [falling, single point]
COc1cc(CNC(=O)c2ccc(Cn3nc(C)c(Cl)c3C)o2)cc(OC)c1
  activity change, negative = inhibition: inconclusive: -12.1%

(next part)

SMILES	activity change, negative = inhibition	Potency
O=C(CCl)N1c2ccccc2OCC1c1ccccc1 (stereo unspecified)	inconclusive: -7.14%	–
CCc1ccc(N=C2NC(=O)/C(=C/c3cc(Br)c(OCC(=O)O)c(OC)c3)S2)cc1	inactive	–
COc1ccccc1-c1cc(C(=O)N2CCN(S(=O)(=O)c3ccc(C)cc3)CC2)[nH]n1	–	inconclusive: 11.2 µM [falling, partial curve]
COc1ccc(OC)c(CN2CCC(Cc3ccccc3)CC2)c1	inactive	–
O=C(O)C(Cc1cc(Cl)ccc1Cl)Sc1nc2ccccc2[nH]1 (stereo unspecified)	inconclusive: -7.79%	–
Brc1ccc(Nc2nc(-c3cccnc3)cs2)cc1	inconclusive: -28.6%	–
Cc1ccc(-c2noc(C(C)NS(=O)(=O)c3ccc(C)cc3)n2)cc1 (stereo unspecified)	inactive	–
COc1ccccc1N1CC(C(=O)Nc2nnc(SCC(=O)N3CCOCC3)s2)CC1=O (stereo unspecified)	inactive	–
CCc1sc(C(=O)Nc2nccs2)cc1C	inconclusive: 1.87%	–
FC(F)(F)c1cccc(Nc2cc(-c3ccccc3)nc3ncnn23)c1	inactive	–
O=C(O)Cc1ccc(N=Nc2c(O)c(C(=O)O)cc3ccccc23)cc1	inconclusive: -8.35%	–
O=C(NCc1ccco1)c1ccc2c(c1)C(=O)c1ccccc1-2	inconclusive: 2.32%	–
Cc1noc(C)c1CSCC(=O)Nc1nc2ccc(F)cc2s1	inconclusive: 0.061%	–
Sc1oc(-c2ccccc2)cc1C=Nc1ccccc1	–	inconclusive: 29.1 µM [falling, single point]
CC(Sc1nnc(-c2ccco2)n1C)C(=O)NC1CCCC1 (stereo unspecified)	inactive	–
COc1ccc2c(c1)c1ncn(CCN3CCCC3)c(=O)c1n2C	inactive	–
Cc1ccc2c(c1)C(=O)C(=O)N2Cc1ccc(Cl)cc1	–	inconclusive: 18.4 µM [cytotoxic, partial curve]
O=C(CCN1C(=O)C2C3CC(C(Br)C3Br)C2C1=O)OCC(=O)c1cccc([N+](=O)[O-])c1 (stereo unspecified)	inconclusive: 6.77%	–
Nc1c(-c2ccc(Cl)cc2)cnn1-c1cccc([N+](=O)[O-])c1	–	inconclusive: 0.794 µM [falling, full curve, poor fit]
Cc1cc(-c2csc(NC(=O)c3ccc(=O)[nH]c3)n2)c(C)n1Cc1ccccc1	inconclusive: 16.9%	–
O=C(Nc1nnc(-c2ccncc2)s1)Nc1ccccc1F	–	inconclusive: 11.2 µM [falling, partial curve]
COc1ccc(CCNC(=O)C2=CC=CN3CCS(=O)(=O)N=C23)cc1	inactive	–

A different layout for 3 compounds above.
O=C(CSc1ncnc2sc3c(c12)CCCC3)c1ccccc1
  activity change, negative = inhibition: inconclusive: 15.4%
O=C(Nc1cccnc1)c1ccc(-c2ccccc2)cc1
  Potency: inconclusive: 25.1 µM [falling, single point]
O/N=C1\CC/C(=N\O)c2nn(-c3ccc(Cl)cc3Cl)nc21
  activity change, negative = inhibition: inconclusive: -0.209%

Next part.

SMILES	activity change, negative = inhibition	Potency
Fc1ccc(Nc2nc(NCc3ccco3)c3ccccc3n2)cc1	–	inconclusive: 22.4 µM [falling, single point]
CCOC(=O)C(=O)N=Nc1c(O)n(C)c2ccccc12	inactive	–
COc1ccccc1NC(=O)c1ccc(NC(=O)CSc2nc(N)cc(=O)[nH]2)cc1	inconclusive: -0.6%	–
CCOc1[nH]n(-c2ccccc2)c(=O)c1C=Nc1ccc(C)cc1	inactive	–
O=C(O)C(=O)Cc1c[nH]c2ccccc12	inconclusive: -15.6%	–
O=P(OC1CCCCC1)(OC1CCCCC1)C(Nc1ccccc1)c1cccnc1 (stereo unspecified)	inactive	–
Cc1ccc(NC(=O)C(C)c2cccc(C(=O)c3ccccc3)c2)cc1 (stereo unspecified)	inconclusive: -0.786%	–
CC(CN1CCNCC1)(NS(=O)(=O)c1ccccc1)c1ccccc1 (stereo unspecified)	inconclusive: 0.947%	–
CN1CCN(c2ccc(S(=O)(=O)N3CCCCC3)cc2NC(=O)c2ccc(C#N)cc2)CC1	inconclusive: -0.328%	–
CCOC(=O)Cn1c(=NC(=O)c2nc3ccccc3s2)sc2cc(S(N)(=O)=O)ccc21	inconclusive: 0.676%	–
N#Cc1c2n(c3c(=O)n(Cc4ccccc4Cl)cnc13)CCCCC2	inconclusive: -0.0341%	–
COc1ccc(CNC(=O)COC(=O)c2ccccc2C(=O)c2ccccc2)cc1	inactive	–
N=C1/C(=C\c2coc3ccccc3c2=O)C(=O)N=C2SC(c3ccncc3)=NN12	inconclusive: -0.572%	–
CCCCCC(=O)Nc1cccc(C2=NOC3(C2)C[C@H](C(N)=O)N(C(=O)c2ccccc2)C3)c1 (stereo partly specified)	inconclusive: -8.19%	–
CCOC(=O)/C=C1\NC(C)(C)Cc2cc(OC)c(OC)cc21	inconclusive: -24.2%	–
O=C(Cc1ccccc1)NCC(=O)OC(c1ccccc1)c1ccccc1	inconclusive: 7.52%	–
COc1cccc(N2CC(NC(=O)c3ccco3)CC2=O)c1 (stereo unspecified)	inactive	–
O=C(NCC(=O)N1CCCC1)c1ccc(Cl)cc1	inactive	–
COC(=O)c1sc(=S)n(-c2cc(F)ccc2F)c1N	inconclusive: -3.2%	–
CCOc1ccccc1NC(=O)CNC(=O)c1nn(-c2ccc(OC)c(OC)c2)c(=O)c2ccccc12	–	inconclusive: 35.5 µM [falling, single point]
COc1ccc(-c2nc(C#N)c(NCc3ccccc3Cl)o2)cc1OC	–	inconclusive: 23.1 µM [falling, partial curve]
Cc1nc(SCC(=O)NCc2ccco2)nc(C)c1C	inactive	–

SMILES	activity change, negative = inhibition	Potency
Cc1cc(C)n(CC(O)Cn2c3ccc(Br)cc3c3cc(Br)ccc32)c(=O)n1 (stereo unspecified)	inconclusive: 27.9%	–
C/C(=N\NC(=O)c1nnn(-c2nonc2N)c1-c1cccs1)c1ccc(C)cc1	inconclusive: 0.755%	–
CC(=C\C(=O)O)/C(=C/c1ccccc1)C(=O)O	–	inconclusive: 4.47 µM [rising, partial curve]
CCc1ccc(OCC(=O)OCC(=O)c2ccc3c(c2)NC(=O)CO3)cc1	inconclusive: 13.4%	–
CC(NC(=O)[C@H](NC(=O)[C@@H]1Cc2ccccc2CN1)c1ccccc1)c1ccccc1 (stereo partly specified)	inconclusive: -0.939%	–
O=C(Nc1ccc(S(=O)(=O)N2CCCC2)cc1)c1ccc(Cl)nc1	–	inconclusive: 0.58 µM [rising, full curve, poor fit]
CCOC(=O)c1[nH]ncc1CN1CCCC(C(=O)c2cccc3ccccc23)C1 (stereo unspecified)	inactive	–
Cc1ccc(C)c(CN2C(=O)N(c3cc(Cl)ccc3C)S(=O)(=O)c3ccccc32)c1	inactive	–
C1=C(C(c2nnnn2C2CCCCC2)N2CCCCC2)COc2ccccc21 (stereo unspecified)	inactive	–
Cc1ccc(NC(=S)Nc2ccc3[nH]c(=O)[nH]c3c2)cc1	inactive	–
CC(C)CCNC(=O)C(=O)Nc1ccccc1	–	inconclusive: 4.47 µM [rising, full curve, poor fit]
CN1CCN(C(=O)c2ccc(COc3ccc(C(C)(C)C)cc3)o2)CC1	inactive	–
CC(/C=N/NC(=O)c1ccc(Cn2cc([N+](=O)[O-])cn2)o1)=C\c1ccccc1	inconclusive: -9.84%	–
c1nc(N2CCOCC2)c2c3c(sc2n1)CCCC3	inactive	–
CCN(CC)CCC(=O)c1ccc(F)cc1	inactive	–
c1ccc(-c2ccc(-c3csnn3)cc2)cc1	inconclusive: -0.0231%	–
CC(=O)c1ccc(Sc2ccccc2N)c([N+](=O)[O-])c1	inconclusive: 15.6%	–
CC(C)n1cc(CN2CCC(C(=O)Nc3ccc(Oc4ccccc4F)cc3)CC2)cn1	inactive	–
CCOc1ccc(S(=O)(=O)NCCC(=O)OCC(=O)c2ccc[nH]2)cc1	inconclusive: 3.91%	–
COc1ccc2nc(NCCNC(=S)NCCCN3CCOCC3)c(C#N)cc2c1	–	inconclusive: 35.5 µM [falling, partial curve, poor fit]
